Assay results: the supplement of paper PMC10849652
This is one part of the list. Residues, ends and D or L forms follow the SMILES beside them. *: point of attachment. Cbz = O=C(OCc1ccccc1)*

Protein sequences, listed by entry. Tags and fused reporters are not part of them. Lines headed by an entry give the natural chain unless they say otherwise; changes in a name come on top.
UniProt Q8NG08: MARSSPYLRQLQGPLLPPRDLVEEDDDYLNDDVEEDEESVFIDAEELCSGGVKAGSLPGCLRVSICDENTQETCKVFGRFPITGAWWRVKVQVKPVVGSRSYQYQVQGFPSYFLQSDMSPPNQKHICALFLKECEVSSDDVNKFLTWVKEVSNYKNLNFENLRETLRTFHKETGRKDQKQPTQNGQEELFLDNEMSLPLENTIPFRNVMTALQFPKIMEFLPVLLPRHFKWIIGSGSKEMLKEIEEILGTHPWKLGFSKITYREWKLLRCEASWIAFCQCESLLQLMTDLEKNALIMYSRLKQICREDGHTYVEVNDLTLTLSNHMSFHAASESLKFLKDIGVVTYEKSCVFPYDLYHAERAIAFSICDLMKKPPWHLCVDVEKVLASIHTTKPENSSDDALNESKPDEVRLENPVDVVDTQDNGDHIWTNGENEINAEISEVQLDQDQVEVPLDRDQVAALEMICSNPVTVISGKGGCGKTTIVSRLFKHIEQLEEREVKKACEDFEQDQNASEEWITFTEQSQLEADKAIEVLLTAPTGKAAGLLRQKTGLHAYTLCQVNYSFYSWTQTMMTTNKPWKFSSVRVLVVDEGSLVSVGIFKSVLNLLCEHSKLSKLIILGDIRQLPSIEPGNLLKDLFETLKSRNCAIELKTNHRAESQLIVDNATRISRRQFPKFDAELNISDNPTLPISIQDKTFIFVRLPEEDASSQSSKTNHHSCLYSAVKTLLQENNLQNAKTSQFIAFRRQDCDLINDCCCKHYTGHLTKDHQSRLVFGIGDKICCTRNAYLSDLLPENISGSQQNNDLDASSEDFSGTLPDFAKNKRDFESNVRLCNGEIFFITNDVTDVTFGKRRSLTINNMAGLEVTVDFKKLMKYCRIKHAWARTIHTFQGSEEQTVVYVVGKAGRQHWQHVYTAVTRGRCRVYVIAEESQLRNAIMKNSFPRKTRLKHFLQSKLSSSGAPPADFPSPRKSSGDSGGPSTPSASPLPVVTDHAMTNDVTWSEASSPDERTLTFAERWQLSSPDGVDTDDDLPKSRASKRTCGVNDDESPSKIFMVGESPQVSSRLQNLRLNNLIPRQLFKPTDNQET
UniProt P69892: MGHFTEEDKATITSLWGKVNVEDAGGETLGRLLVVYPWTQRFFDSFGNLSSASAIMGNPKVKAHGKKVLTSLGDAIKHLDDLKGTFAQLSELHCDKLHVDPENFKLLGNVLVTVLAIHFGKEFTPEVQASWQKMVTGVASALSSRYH
UniProt Q15751: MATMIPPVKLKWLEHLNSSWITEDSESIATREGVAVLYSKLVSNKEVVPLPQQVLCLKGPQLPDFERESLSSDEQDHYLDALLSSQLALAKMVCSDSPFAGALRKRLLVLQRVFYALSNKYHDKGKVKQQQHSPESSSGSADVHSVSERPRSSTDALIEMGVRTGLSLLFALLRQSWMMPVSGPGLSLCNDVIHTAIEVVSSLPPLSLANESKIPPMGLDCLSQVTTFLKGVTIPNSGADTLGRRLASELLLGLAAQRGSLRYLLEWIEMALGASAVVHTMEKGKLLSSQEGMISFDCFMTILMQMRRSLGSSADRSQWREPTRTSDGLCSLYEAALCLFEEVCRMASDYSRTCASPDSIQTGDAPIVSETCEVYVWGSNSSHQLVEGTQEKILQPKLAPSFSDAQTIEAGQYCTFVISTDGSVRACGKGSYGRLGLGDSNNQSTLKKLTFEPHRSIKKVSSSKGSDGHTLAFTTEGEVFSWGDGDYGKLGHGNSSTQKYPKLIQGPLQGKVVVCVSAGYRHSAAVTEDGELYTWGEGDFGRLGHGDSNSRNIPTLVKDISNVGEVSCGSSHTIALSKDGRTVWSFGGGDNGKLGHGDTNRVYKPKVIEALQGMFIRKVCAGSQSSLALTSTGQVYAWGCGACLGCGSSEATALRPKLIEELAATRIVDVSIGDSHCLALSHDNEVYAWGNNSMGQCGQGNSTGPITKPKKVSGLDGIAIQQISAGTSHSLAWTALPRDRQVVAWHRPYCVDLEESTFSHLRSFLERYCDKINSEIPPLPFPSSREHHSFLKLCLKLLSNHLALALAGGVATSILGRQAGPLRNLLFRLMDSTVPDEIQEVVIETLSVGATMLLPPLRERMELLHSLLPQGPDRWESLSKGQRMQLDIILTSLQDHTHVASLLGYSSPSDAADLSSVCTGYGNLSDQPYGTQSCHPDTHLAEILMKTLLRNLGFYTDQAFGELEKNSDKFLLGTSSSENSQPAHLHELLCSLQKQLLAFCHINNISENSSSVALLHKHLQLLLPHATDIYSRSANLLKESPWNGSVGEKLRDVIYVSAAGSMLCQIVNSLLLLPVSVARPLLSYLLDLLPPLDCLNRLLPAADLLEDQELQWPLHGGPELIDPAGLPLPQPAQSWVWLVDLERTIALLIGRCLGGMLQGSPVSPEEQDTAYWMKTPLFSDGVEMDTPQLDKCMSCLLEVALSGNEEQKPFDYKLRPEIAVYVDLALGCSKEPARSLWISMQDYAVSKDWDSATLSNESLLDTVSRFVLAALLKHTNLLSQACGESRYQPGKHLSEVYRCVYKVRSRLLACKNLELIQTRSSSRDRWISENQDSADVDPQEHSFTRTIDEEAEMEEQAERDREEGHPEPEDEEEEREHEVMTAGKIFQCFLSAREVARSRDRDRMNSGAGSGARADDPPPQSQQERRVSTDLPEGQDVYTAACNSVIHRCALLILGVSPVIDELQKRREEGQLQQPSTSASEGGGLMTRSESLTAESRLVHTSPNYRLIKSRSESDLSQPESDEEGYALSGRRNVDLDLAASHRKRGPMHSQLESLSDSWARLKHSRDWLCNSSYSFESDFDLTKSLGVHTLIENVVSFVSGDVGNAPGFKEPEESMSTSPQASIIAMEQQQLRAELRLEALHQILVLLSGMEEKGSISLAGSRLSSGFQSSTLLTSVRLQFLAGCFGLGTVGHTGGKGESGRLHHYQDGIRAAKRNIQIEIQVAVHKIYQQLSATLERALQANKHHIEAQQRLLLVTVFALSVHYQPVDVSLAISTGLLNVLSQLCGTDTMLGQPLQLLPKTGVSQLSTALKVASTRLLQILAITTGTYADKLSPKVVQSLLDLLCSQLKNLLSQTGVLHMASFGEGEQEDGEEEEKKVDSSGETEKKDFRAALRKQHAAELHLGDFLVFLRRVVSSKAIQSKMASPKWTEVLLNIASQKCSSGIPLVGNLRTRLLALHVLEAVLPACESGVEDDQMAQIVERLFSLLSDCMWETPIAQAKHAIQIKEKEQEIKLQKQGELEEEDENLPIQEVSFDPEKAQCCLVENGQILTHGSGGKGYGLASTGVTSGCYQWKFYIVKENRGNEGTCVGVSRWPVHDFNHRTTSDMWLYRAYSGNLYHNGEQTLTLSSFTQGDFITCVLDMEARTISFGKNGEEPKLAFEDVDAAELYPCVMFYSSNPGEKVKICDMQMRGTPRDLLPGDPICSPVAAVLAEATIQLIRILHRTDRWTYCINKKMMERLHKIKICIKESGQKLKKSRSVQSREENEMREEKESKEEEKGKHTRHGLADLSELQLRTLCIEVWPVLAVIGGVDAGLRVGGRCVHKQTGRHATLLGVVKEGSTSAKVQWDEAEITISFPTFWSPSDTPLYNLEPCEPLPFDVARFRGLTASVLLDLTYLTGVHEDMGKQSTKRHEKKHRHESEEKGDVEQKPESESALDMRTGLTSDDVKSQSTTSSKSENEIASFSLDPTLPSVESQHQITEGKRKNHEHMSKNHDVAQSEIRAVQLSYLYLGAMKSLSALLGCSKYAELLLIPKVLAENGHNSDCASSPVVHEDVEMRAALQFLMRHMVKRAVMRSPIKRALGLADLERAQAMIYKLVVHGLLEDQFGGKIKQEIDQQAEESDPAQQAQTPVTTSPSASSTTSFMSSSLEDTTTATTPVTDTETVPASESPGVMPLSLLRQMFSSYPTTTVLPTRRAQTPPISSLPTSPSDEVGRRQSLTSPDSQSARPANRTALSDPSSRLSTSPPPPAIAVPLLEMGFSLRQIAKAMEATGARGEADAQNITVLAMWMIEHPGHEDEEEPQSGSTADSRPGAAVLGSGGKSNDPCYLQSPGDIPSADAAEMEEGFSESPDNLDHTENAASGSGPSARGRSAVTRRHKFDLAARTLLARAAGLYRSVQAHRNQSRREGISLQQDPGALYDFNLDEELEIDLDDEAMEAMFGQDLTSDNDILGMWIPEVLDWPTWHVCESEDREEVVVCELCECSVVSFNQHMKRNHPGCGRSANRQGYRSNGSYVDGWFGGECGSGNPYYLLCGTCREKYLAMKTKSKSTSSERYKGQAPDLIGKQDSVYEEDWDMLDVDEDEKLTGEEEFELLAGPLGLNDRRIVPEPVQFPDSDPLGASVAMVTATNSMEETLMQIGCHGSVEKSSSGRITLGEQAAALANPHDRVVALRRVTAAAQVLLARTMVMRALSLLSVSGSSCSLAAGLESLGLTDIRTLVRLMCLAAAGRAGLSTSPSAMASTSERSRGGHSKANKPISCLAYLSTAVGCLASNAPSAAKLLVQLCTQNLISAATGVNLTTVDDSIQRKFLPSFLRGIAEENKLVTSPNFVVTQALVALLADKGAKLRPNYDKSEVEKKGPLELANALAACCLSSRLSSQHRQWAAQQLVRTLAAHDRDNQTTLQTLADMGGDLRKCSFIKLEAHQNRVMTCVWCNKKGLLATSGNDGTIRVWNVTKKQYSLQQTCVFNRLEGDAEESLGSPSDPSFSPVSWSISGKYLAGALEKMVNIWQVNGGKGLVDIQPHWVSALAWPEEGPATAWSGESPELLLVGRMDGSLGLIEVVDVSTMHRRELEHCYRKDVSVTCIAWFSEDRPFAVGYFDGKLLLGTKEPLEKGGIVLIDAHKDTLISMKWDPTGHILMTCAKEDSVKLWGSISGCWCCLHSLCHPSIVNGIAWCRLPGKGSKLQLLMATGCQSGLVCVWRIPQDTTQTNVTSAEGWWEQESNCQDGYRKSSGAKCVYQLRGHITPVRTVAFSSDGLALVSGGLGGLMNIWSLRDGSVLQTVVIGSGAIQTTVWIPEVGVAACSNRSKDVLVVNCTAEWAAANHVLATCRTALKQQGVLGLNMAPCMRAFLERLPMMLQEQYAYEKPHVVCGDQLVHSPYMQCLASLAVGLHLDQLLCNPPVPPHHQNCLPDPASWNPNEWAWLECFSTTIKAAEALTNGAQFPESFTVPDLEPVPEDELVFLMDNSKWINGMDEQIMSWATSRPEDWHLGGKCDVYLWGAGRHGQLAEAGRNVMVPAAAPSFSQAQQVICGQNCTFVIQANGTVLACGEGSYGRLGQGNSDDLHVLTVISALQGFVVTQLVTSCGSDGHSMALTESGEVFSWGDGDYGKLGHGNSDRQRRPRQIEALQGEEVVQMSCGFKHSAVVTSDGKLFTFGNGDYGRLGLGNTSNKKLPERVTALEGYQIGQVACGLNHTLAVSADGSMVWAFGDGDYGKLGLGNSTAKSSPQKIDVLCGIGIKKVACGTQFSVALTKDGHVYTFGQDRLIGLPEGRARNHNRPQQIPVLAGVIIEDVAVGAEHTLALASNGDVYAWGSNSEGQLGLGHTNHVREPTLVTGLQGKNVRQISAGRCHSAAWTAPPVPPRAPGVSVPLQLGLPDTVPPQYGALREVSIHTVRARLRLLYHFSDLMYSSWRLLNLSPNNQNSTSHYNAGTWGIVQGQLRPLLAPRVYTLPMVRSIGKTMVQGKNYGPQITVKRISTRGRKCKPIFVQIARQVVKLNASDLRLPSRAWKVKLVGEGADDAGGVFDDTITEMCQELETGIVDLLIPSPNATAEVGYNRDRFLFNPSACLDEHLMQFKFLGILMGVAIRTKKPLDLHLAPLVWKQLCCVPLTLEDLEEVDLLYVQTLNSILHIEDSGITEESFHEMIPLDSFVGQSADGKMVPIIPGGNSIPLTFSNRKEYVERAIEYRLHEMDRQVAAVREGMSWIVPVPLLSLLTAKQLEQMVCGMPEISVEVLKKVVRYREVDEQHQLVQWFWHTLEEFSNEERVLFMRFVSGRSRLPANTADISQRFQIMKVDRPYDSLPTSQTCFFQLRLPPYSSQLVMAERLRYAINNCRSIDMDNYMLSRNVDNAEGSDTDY
UniProt Q969Y2: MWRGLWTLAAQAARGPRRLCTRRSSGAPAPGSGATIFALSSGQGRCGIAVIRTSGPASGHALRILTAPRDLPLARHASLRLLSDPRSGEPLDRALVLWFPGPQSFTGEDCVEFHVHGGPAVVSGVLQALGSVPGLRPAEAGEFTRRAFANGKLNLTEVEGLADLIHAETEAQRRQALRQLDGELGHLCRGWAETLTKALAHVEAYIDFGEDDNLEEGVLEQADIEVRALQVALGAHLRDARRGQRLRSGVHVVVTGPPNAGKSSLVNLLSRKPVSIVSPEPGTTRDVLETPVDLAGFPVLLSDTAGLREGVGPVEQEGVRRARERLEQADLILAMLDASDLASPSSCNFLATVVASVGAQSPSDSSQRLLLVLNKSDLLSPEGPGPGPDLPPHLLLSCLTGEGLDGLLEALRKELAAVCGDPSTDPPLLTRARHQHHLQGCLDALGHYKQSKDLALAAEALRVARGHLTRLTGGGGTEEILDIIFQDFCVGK

Tests used:
Experiment in all cases: log2 fold change, soluble protein after heating vs DMSO (PISA); higher = thermal stabilisation; K562 cells, 10 uM, 30 min; active = over 0.2 and 3.5 SD of the protein, either way, in both replicates (recomputed)
IRAK-1-4 Inhibitor I = compound: C1COCCN1CCN2C3=CC=CC=C3N=C2NC(=O)C4=CC(=CC=C4)[N+](=O)[O-] [IRAK-1-4 Inhibitor I]
Summary of the method: (§1)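 For each measurement, 10 μM compound was applied for 30 min to K562 cells at 2×10^6 cells/mL. Aliquots were heated for 3 min across 48°C-58°C, pooled, and extracted in PBS with 0.5% NP-40 at 4°C; the supernatant after 21,000xg for 90 min was soluble protein. This was quantified by TMTpro 16plex LC-MS/MS with channel sums equalised, and thermal stability was reported relative to control samples from duplicates, on a log2 fold-change scale.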

ibrutinib = compound: C=CC(=O)N1CCC[C@@H](n2nc(-c3ccc(Oc4ccccc4)cc3)c3c(N)ncnc32)C1 [ibrutinib]
Summary of the method: as §1

[1] = compound: CC(=O)c1cnc2ccc(-c3cc(Cl)c(O)c(Cl)c3)nc2c1N[C@H]1CC[C@H](CN(C)C)CC1
Summary of the method: as §1

ralimetinib = compound: CC(C)(C)Cn1c(N)nc2ccc(-c3[nH]c(C(C)(C)C)nc3-c3ccc(F)cc3)nc21 [ralimetinib]
Summary of the method: as §1

[2] = compound: CC(C)(O)CC(=O)NCCn1ccc2ncnc(Nc3ccc(Oc4cccc(C(F)(F)F)c4)c(Cl)c3)c21
Summary of the method: as §1

[3] = compound: CC(C)C1=C2N=C(C=C(N2N=C1)NCC3=CC=CC=C3)NCCCCCCN
Summary of the method: as §1

[4] = compound: CC(C)C[C@@H](C=O)NC(=O)[C@H](CC(C)C)NC(=O)[C@H](CC(C)C)NC(=O)OCc1ccccc1
Summary of the method: as §1

pinometostat = compound: CC(C)N(C[C@H]1O[C@@H](n2cnc3c(N)ncnc32)[C@H](O)[C@@H]1O)[C@H]1C[C@@H](CCc2nc3cc(C(C)(C)C)ccc3[nH]2)C1 [pinometostat]
Summary of the method: as §1

[5] = compound: CC1=C(C(CC(=O)N1)C2=CC=C(C=C2)C(F)(F)F)C(=O)NC3=C(C=C4C(=C3)C=NN4)F
Summary of the method: as §1

[6] = compound: CC1=C(C2=C(C=C1)C(=O)C3=CC=CC=C3N2CCCN)C
Summary of the method: as §1

[7] = compound: CC1=C(C=C(C=C1)NC(=O)C2=CC(=CC=C2)C(C)(C)C#N)NC3=CC4=C(C=C3)N=CN(C4=O)C
Summary of the method: as §1

[8] = compound: CC1=C(C=C(C=C1)NC(=O)C2=CC(=CC=C2)N(C)C)NC(=O)C3=CC=C(C=C3)O
Summary of the method: as §1

[9] = compound: CC1=CC=C(C=C1)SC2=C3C=C(SC3=CN=C2)C(=O)N
Summary of the method: as §1

[10] = compound: CC1=NC(=CC=C1)C2=C(N=C(N2)C(C)(C)C)C3=CC4=NC=CN=C4C=C3
Summary of the method: as §1

Nexturastat A = compound: CCCCN(Cc1ccc(C(=O)NO)cc1)C(=O)Nc1ccccc1 [Nexturastat A]
Summary of the method: as §1

vemurafenib = compound: CCCS(=O)(=O)Nc1ccc(F)c(C(=O)c2c[nH]c3ncc(-c4ccc(Cl)cc4)cc23)c1F [vemurafenib]
Summary of the method: as §1

[11] = compound: CCCS(=O)(=O)Nc1ccc(F)c(C(=O)c2c[nH]c3ncc(Cl)cc23)c1F
Summary of the method: as §1

[12] = compound: CCCc1cc(C)[nH]c(=O)c1CNC(=O)c1cc(-c2ccnc(N3CCN(C)CC3)c2)cc2c1cnn2C(C)C
Summary of the method: as §1

givinostat = compound: CCN(CC)Cc1ccc2cc(COC(=O)Nc3ccc(C(=O)NO)cc3)ccc2c1 [givinostat]
Summary of the method: as §1

barasertib = compound: CCN(CCCOc1ccc2c(Nc3cc(CC(=O)Nc4cccc(F)c4)[nH]n3)ncnc2c1)CCOP(=O)(O)O [barasertib]
Summary of the method: as §1

Measured: log2 fold change

HELB (UniProt Q8NG08)
inactive: IRAK-1-4 Inhibitor I 0.034 | ibrutinib 0.039 | [1] -0.091 | ralimetinib -0.021 | [2] -0.075 | [3] 0.058 | [4] -0.018 | pinometostat 0.016 | [5] -0.031 | [6] 0.127 | [7] 0.008 | [8] 0.041 | [9] -0.017 | [10] 0.045 | Nexturastat A -0.038 | vemurafenib 0.036 | [11] 0.114 | [12] -0.003 | givinostat -0.011 | barasertib 0.034

HEATR1 (UniProt Q9H583)
inactive: IRAK-1-4 Inhibitor I 0.07 | ibrutinib 0.071 | [1] -0.03 | ralimetinib 0.092 | [2] -0.003 | [3] -0.071 | [4] 0.324 | pinometostat -0.004 | [5] -0.116 | [6] 0.263 | [7] -0.169 | [8] -0.028 | [9] -0.038 | [10] 0.032 | Nexturastat A 0.337 | vemurafenib -0.239 | [11] 0.132 | [12] 0.004 | givinostat 0.168 | barasertib 0.159

HBG2 (UniProt P69892)
inactive: IRAK-1-4 Inhibitor I 0.012 | ibrutinib 0.021 | [1] 0.024 | ralimetinib 0.008 | [2] -0.087 | [3] 0.065 | [4] -0.094 | pinometostat -0.094 | [5] -0.002 | [6] 0.134 | [7] 0.055 | [8] -0.102 | [9] 0.069 | [10] 0.072 | Nexturastat A -0.036 | vemurafenib 0.069 | [11] 0.039 | [12] 0.03 | givinostat -0.08 | barasertib -0.022

HERC1 (UniProt Q15751)
inactive: IRAK-1-4 Inhibitor I -0.004 | ibrutinib -0.033 | [1] 0.065 | ralimetinib 0.052 | [2] -0.001 | [3] -0.061 | [4] -0.051 | pinometostat 0.037 | [5] -0.009 | [6] 0.01 | [7] -0.019 | [8] -0.011 | [9] -0.023 | [10] 0 | Nexturastat A -0.026 | vemurafenib -0.02 | [11] 0.022 | [12] 0.024 | givinostat -0.011 | barasertib 0.008

HCLS1 (UniProt P14317)
inactive: IRAK-1-4 Inhibitor I 0.059 | ibrutinib 0.013 | [1] -0.012 | ralimetinib -0.067 | [2] -0.029 | [3] 0.005 | [4] 0.003 | pinometostat -0.025 | [5] 0.011 | [6] -0.027 | [7] -0.031 | [8] 0.053 | [9] 0.026 | [10] -0.008 | Nexturastat A -0.013 | vemurafenib 0.056 | [11] -0.003 | [12] -0.024 | givinostat -0.036 | barasertib 0.01

H1-4 (UniProt P10412)
inactive: IRAK-1-4 Inhibitor I -0.195 | ibrutinib 0.133 | [1] 0.048 | ralimetinib 0.11 | [2] 0.086 | [3] -0.087 | [4] 0.189 | pinometostat 0.369 | [5] 0.075 | [6] 0.727 | [7] 0.003 | [8] -0.074 | [9] -0.004 | [10] -0.304 | Nexturastat A 0.514 | vemurafenib -0.141 | [11] -0.066 | [12] 0.09 | givinostat 0.212 | barasertib -0.097

GTF2F1 (UniProt P35269)
inactive: IRAK-1-4 Inhibitor I -0.032 | ibrutinib -0.009 | [1] 0.156 | ralimetinib -0.009 | [2] -0.01 | [3] 0.02 | [4] 0.015 | pinometostat -0.071 | [5] 0.044 | [6] 0.061 | [7] -0.012 | [8] -0.017 | [9] 0.02 | [10] 0.077 | Nexturastat A -0.022 | vemurafenib -0.014 | [11] -0.013 | [12] -0.025 | givinostat -0.013 | barasertib -0.019

Two entries picked at random from those above, as already listed:
HEATR1 (UniProt Q9H583)
inactive: IRAK-1-4 Inhibitor I 0.07 | ibrutinib 0.071 | [1] -0.03 | ralimetinib 0.092 | [2] -0.003 | [3] -0.071 | [4] 0.324 | pinometostat -0.004 | [5] -0.116 | [6] 0.263 | [7] -0.169 | [8] -0.028 | [9] -0.038 | [10] 0.032 | Nexturastat A 0.337 | vemurafenib -0.239 | [11] 0.132 | [12] 0.004 | givinostat 0.168 | barasertib 0.159

HELB (UniProt Q8NG08)
inactive: IRAK-1-4 Inhibitor I 0.034 | ibrutinib 0.039 | [1] -0.091 | ralimetinib -0.021 | [2] -0.075 | [3] 0.058 | [4] -0.018 | pinometostat 0.016 | [5] -0.031 | [6] 0.127 | [7] 0.008 | [8] 0.041 | [9] -0.017 | [10] 0.045 | Nexturastat A -0.038 | vemurafenib 0.036 | [11] 0.114 | [12] -0.003 | givinostat -0.011 | barasertib 0.034

Next results:

HERC4 (UniProt Q5GLZ8)
inactive: IRAK-1-4 Inhibitor I 0.029 | ibrutinib 0.018 | [1] -0.055 | ralimetinib 0.003 | [2] -0.043 | [3] -0.042 | [4] -0.02 | pinometostat -0.008 | [5] -0.009 | [6] 0.003 | [7] 0.009 | [8] -0.004 | [9] 0.027 | [10] 0.006 | Nexturastat A -0.02 | vemurafenib 0.05 | [11] 0.065 | [12] -0.042 | givinostat 0.012 | barasertib 0.035

GTPBP10 (UniProt A4D1E9)
inactive: IRAK-1-4 Inhibitor I -0.127 | ibrutinib -0.136 | [1] -0.189 | ralimetinib 0.053 | [2] -0.018 | [3] 0.002 | [4] 0.122 | pinometostat 0.111 | [5] 0.169 | [6] 0.16 | [7] 0.181 | [8] -0.056 | [9] -0.05 | [10] 0.025 | Nexturastat A 0.004 | vemurafenib -0.056 | [11] -0.051 | [12] 0.136 | givinostat 0.138 | barasertib 0.077

GTPBP3 isoform 2 (UniProt Q969Y2)
inactive: IRAK-1-4 Inhibitor I 0.014 | ibrutinib 0.007 | [1] -0.008 | ralimetinib -0.041 | [2] -0.006 | [3] 0.007 | [4] -0.044 | pinometostat -0.031 | [5] 0.009 | [6] 0.049 | [7] -0.01 | [8] -0.03 | [9] -0.002 | [10] 0.022 | Nexturastat A -0.044 | vemurafenib 0.005 | [11] 0.018 | [12] -0.03 | givinostat -0.108 | barasertib 0.004

GTSF1 (UniProt Q8WW33)
inactive: IRAK-1-4 Inhibitor I 0.027 | ibrutinib 0.021 | [1] 0.028 | ralimetinib 0.303 | [2] 0.007 | [3] 0.063 | [4] -0.072 | pinometostat -0.039 | [5] 0.002 | [6] -0.026 | [7] -0.007 | [8] 0.138 | [9] -0.002 | [10] 0.013 | Nexturastat A -0.059 | vemurafenib -0.026 | [11] -0.018 | [12] -0.018 | givinostat -0.012 | barasertib 0.003

GTF3C1 (UniProt Q12789)
inactive: IRAK-1-4 Inhibitor I 0.023 | ibrutinib -0.196 | [1] -0.01 | ralimetinib -0.135 | [2] -0.003 | [3] -0.169 | [4] -0.058 | pinometostat 0.147 | [5] 0.276 | [6] 0.105 | [7] 0.175 | [8] 0.134 | [9] -0.119 | [10] -0.061 | Nexturastat A -0.074 | vemurafenib -0.226 | [11] -0.305 | [12] -0.064 | givinostat 0.063 | barasertib 0.086

HAUS1 (UniProt Q96CS2)
inactive: IRAK-1-4 Inhibitor I 0.012 | ibrutinib -0.042 | [1] 0.062 | ralimetinib 0.052 | [2] 0 | [3] -0.094 | [4] 0.12 | pinometostat 0.051 | [5] 0.131 | [6] -0.089 | [7] -0.135 | [8] -0.07 | [9] 0.049 | [10] -0.142 | Nexturastat A 0.19 | vemurafenib -0.093 | [11] 0.114 | [12] 0.102 | givinostat 0.112 | barasertib 0.033

GSTM2 (UniProt P28161)
inactive: IRAK-1-4 Inhibitor I 0.026 | ibrutinib -0.059 | [1] -0.031 | ralimetinib -0.018 | [2] -0.001 | [3] 0.032 | [4] 0.051 | pinometostat -0.027 | [5] -0.028 | [6] 0.018 | [7] -0.018 | [8] 0.007 | [9] -0.041 | [10] 0.036 | Nexturastat A 0.017 | vemurafenib 0.013 | [11] -0.001 | [12] 0.101 | givinostat -0.023 | barasertib 0.019

HDDC3 (UniProt Q8N4P3)
inactive: IRAK-1-4 Inhibitor I 0.079 | ibrutinib 0.004 | [1] -0.019 | ralimetinib -0.045 | [2] -0.008 | [3] 0.025 | [4] 0.042 | pinometostat 0.026 | [5] 0.027 | [6] 0.02 | [7] -0.001 | [8] 0.023 | [9] -0.001 | [10] -0.003 | Nexturastat A -0.07 | vemurafenib -0.041 | [11] -0.029 | [12] -0.053 | givinostat -0.03 | barasertib 0.002

H1-3 (UniProt P16402)
inactive: IRAK-1-4 Inhibitor I -0.049 | ibrutinib 0.042 | [1] 0.103 | ralimetinib 0.16 | [2] 0.017 | [3] -0.062 | [4] 0.074 | pinometostat 0.317 | [5] 0.046 | [6] 0.669 | [7] 0.047 | [8] 0.025 | [9] -0.014 | [10] -0.136 | Nexturastat A 0.405 | vemurafenib -0.116 | [11] -0.013 | [12] 0.191 | givinostat 0.162 | barasertib -0.117
